Paper PMC6054272, “Arabidopsis SKP1-like protein13 (ASK13) positively regulates seed germination and seedling growth under abiotic stress” (Journal of Experimental Botany, 2018)
Results are given in words; binding and its absence hold for the method and conditions named. For part of these data: Binding seen in cells or lysates may run through a third protein. Some binding calls cover weakened binding; strength is not graded here. Tags and fused reporters may be left off the sequences shown. Each block holds one molecule with its values, some of them ahead of it.

The chains behind the UniProt entries cited, without tags or fusion partners.
UniProt Q9FHW7: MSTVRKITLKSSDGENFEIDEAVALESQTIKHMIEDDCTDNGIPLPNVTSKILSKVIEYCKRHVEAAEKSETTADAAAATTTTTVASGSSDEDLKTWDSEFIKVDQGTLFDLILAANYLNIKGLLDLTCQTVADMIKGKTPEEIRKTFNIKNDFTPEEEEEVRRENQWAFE
UniProt Q39255: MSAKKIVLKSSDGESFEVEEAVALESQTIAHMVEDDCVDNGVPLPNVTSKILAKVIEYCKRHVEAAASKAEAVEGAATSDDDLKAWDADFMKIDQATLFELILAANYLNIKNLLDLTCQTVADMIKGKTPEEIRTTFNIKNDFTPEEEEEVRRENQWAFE

Legend:
[1] = target: T1, Arabidopsis SKP1-like protein13 (ASK13), yeast two-hybrid fusion (Arabidopsis thaliana) (UniProt Q9M1X5); assay: two-hybrid; one-to-one: pDEST-GBKT7 and pDEST-GADT7 constructs co-transformed into Y2H Gold; SD-Ade-His-Leu-Trp/X-alpha-Gal/aureobasidin agar
T1 sequence: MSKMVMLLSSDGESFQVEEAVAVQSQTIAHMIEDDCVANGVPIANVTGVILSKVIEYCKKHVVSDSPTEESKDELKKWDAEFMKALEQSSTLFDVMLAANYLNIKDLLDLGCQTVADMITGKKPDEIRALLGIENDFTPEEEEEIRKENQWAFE

[2] = target: T2, ASK13, BiFC fusion with a half of EYFP (Arabidopsis thaliana) (UniProt Q9M1X5); assay: split reporter; BiFC: nYFP (1-174) and cYFP (175-end) fusions bombarded into onion epidermal cells, 24 h in darkness, confocal microscopy of the YFP signal
T2 sequence: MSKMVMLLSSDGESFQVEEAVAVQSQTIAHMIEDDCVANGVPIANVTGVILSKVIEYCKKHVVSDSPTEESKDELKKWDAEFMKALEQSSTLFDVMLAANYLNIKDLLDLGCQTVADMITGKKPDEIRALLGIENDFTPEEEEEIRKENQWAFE

[3] = target: ASK2 (Arabidopsis SKP1-like 2), yeast two-hybrid fusion (Arabidopsis thaliana) (UniProt Q9FHW7); assay: two-hybrid; one-to-one: pDEST-GBKT7 and pDEST-GADT7 constructs co-transformed into Y2H Gold; SD-Ade-His-Leu-Trp/X-alpha-Gal/aureobasidin agar
[4] = target: T3, ASK7 (Arabidopsis SKP1-like 7), yeast two-hybrid fusion (Arabidopsis thaliana) (UniProt Q9LSY0); assay: as above
T3 sequence: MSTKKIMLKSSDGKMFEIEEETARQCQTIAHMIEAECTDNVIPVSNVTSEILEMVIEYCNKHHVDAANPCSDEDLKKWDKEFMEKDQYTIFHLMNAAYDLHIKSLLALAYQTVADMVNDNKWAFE

[5] = target: ASK10 (Arabidopsis SKP1-like 10), yeast two-hybrid fusion (Arabidopsis thaliana) (UniProt Q9LSX8); assay: as above
[6] = target: ASK1 (Arabidopsis SKP1-like 1), yeast two-hybrid fusion (Arabidopsis thaliana) (UniProt Q39255); assay: as above
[7] = target: T1, Arabidopsis SKP1-like protein13 (ASK13), yeast two-hybrid fusion (Arabidopsis thaliana); assay: two-hybrid; library screen: pGBKT7BD-ASK13 (bait) in Y2H Gold mated with a normalized Arabidopsis Y2H cDNA library (prey); SD lacking histidine, tryptophan, leucine and adenine with X-alpha-Gal and aureobasidin A; retrieved plasmids retested with the empty bait vector and with ASK13

Molecule: ASK1 (Arabidopsis SKP1-like 1), yeast two-hybrid fusion (from UniProt Q39255 1-160)
binding [1]: binds

B2: ASK7 (Arabidopsis SKP1-like 7), yeast two-hybrid fusion (protein, UniProt Q9LSY0 1-125)
chain: MSTKKIMLKSSDGKMFEIEEETARQCQTIAHMIEAECTDNVIPVSNVTSEILEMVIEYCNKHHVDAANPCSDEDLKKWDKEFMEKDQYTIFHLMNAAYDLHIKSLLALAYQTVADMVNDNKWAFE
binding [3]: binds | binding [4]: binds

B3: F-box protein At1g08710, BiFC fusion with the C-terminal half of YFP (protein, UniProt Q9CAZ0 1-295)
chain: MSANEIPDELWRKILEIGVKSSTFSYKDLCCISISSRRLFRLSCDDSLWDLLLVHDFPNHIVSASSSSESPTKFIYMTRFEREKERKLAAHRRALLRKESEISEWGRRIRELEARLSDEAERLQSSSLQFSDLLKVRQASVALNVWQPEVVRGRQKQMVEQNAVPVEGRLRALEMEMKLCKQQIMGLNRALREVKHRYDIAIKELESMKYHPLRDYKSIRNGDQGSNGKTKKLKTSINYSGDQVSNGKRRKLKTSIDCKFMNISHFSSCSSVTEKFYSYSPKIIHEYIPENLLVL
binding [2]: binds

B4: ASK10 (Arabidopsis SKP1-like 10), yeast two-hybrid fusion (protein, UniProt Q9LSX8 1-152)
chain: MSTKKIILKSSDGHSFEVEEEAACQCQTIAHMSEDDCTDNGIPLPEVTGKILEMVIEYCNKHHVDAANPCSDEDLKKWDKEFMEKYQSTIFDLIMAANYLNIKSLLDLACQTVADMIKDNTVEHTRKFFNIENDYTHEEEEAVRRENQWGFE
binding [5]: binds

B5: Arabidopsis SKP1-like protein13 (ASK13), yeast two-hybrid fusion (protein, UniProt Q9M1X5 1-154)
chain: MSKMVMLLSSDGESFQVEEAVAVQSQTIAHMIEDDCVANGVPIANVTGVILSKVIEYCKKHVVSDSPTEESKDELKKWDAEFMKALEQSSTLFDVMLAANYLNIKDLLDLGCQTVADMITGKKPDEIRALLGIENDFTPEEEEEIRKENQWAFE
binding [6]: binds | binding [1]: binds | binding [7]: binds

B6: ASK13, BiFC fusion with a half of EYFP (protein, UniProt Q9M1X5 1-154)
chain: MSKMVMLLSSDGESFQVEEAVAVQSQTIAHMIEDDCVANGVPIANVTGVILSKVIEYCKKHVVSDSPTEESKDELKKWDAEFMKALEQSSTLFDVMLAANYLNIKDLLDLGCQTVADMITGKKPDEIRALLGIENDFTPEEEEEIRKENQWAFE
binding [2]: binds

The remaining lines, values ahead:

binding [2]: binds
B1: F-box protein At5g45360, BiFC fusion with the C-terminal half of YFP (protein, UniProt Q9FHK0 1-316)
chain: MSVSDEEDECFARFLESEVSSVEDKEETKEPEAKRQRIEKGETKALEKDEDQKENGNKDKTDAKRIESGVFTNVPTELFRHILKFLSSEDLVSCSLVCKFLNFAAADESLWRRLYCIRWGLTLPSRKLRESAWKKLYIDRDEQDMIELVRTCPSDFKEYYVHMQAAKRSQAPLPSQMVDDRIILDNTVLEQVSLWKKSKGLTDKAVTGHICLGTKCSYHQIDDVFICKETGNVHVCDDNCKEVILSPEGDLMVCTISGVCSDTLLVQTEPDADGCYEEEAELEAEVFTDKSRLARAFELGYNCDDEQELERTLRFC

binding [2]: binds
B7: Non-F-box protein At4g32530 (ATPase, F0/V0 complex, subunit C protein), BiFC fusion with the C-terminal half of YFP (protein, UniProt Q9SZY7 1-180)
chain: MSGVVALGHASSWGAALVRISPYTFSAIGIAISIGVSVLGAAWGIYITGSSLIGAAIEAPRITSKNLISVIFCEAVAIYGVIVAIILQTKLESVPSSKMYDAESLRAGYAIFASGIIVGFANLVCGLCVGIIGSSCALSDAQNSTLFVKILVIEIFGSALGLFGVIVGIIMSAQATWPTK

binding [2]: binds
B8: Non-F-box protein At2g23070 (Protein kinase superfamily protein), BiFC fusion with the C-terminal half of YFP (protein, UniProt O64816 56-432)
chain: ASLYRQHLRNQQQQHQQQQQSRVKEKSETLAQKIGKSIRRAGAPSKARVYADVNVVRPKDYWDYESLAVQWGVQDDYEVVRKVGRGKYSEVFEGIHATDNEKCVIKILKPVKKKKIKREIKILQNLCGGPNIVKLLDIVRDQQSKTPSLIFEHVNNKDFKVLYPTLSDYDVRYYIFELLKALDFCHSRGIMHRDVKPHNVMIDHEQRKLRLIDWGLAEFYHPGKEYNVRVASRYFKGPELLVDLQDYDYSLDLWSLGCMFAGMIFRKEPFFYGHDNYDQLVKIAKVLGTDELNAYLNKYRIELDPNLTSLVGRHSRKPWTKFINSENQHLAVPEAVDFVDKLLRYDHQERPTAKEAMAHPYFYPIRNAESSRTPRSQ
